{"sequences": {"note": "Sequences of proteins named here, by UniProt entry; tags and fusion partners are left off. A change or cut given only in a name is not applied to a line headed by its entry.", "UniProt Q7Z434": "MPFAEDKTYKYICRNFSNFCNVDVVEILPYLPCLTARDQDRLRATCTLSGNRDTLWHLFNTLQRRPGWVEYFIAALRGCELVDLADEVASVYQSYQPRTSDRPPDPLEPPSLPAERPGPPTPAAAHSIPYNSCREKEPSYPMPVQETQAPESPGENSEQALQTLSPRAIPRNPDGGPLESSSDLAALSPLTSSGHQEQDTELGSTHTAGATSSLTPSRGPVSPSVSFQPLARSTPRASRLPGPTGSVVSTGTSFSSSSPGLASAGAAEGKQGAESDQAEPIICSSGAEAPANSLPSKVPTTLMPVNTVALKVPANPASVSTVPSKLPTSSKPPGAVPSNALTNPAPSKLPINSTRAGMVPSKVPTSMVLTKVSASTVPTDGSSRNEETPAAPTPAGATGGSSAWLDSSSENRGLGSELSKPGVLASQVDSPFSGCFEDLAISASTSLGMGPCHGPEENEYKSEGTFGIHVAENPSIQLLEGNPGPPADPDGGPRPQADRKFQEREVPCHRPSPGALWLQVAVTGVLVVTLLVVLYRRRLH"}, "source": "paper PMC11932694", "molecular_target": "T1, Flag-ORMDL3 (human) (UniProt Q8N138)", "T1 sequence": "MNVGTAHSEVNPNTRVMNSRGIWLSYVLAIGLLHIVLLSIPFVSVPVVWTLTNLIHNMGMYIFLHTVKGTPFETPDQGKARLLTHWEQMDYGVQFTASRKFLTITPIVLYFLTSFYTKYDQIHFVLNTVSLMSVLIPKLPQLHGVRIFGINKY", "test": "co-IP; HEK293T cells co-transfected with MAVS truncations and EV or Flag-ORMDL3; lysates immunoprecipitated with anti-Flag antibody, blots with anti-HA and anti-Flag", "note": "No constants are given. Whether binding was seen depends on the method and setting. Binding seen in cells or lysates may run through a third protein. Some results given as binding are weak or reduced against the parent protein; the word gives no strength. Sequences can lack the tags named with a protein."}
{"substance": "MAVS (HA-tagged, undeleted parent of the MAVS truncations) (from UniProt Q7Z434 1-540)", "values": [{"measurement": "binding", "result": "binds"}]}
